Experimental data from publication PMC7617576.
These are yes or no findings as the source states them, for the method shown. In cells and extracts the contact can be indirect. Here binding means that the protein was enriched with, or labelled near, the bait; the list need not be complete. For some assays here: A no says only that the protein was not detected with the bait. For some assays here: Where a sequence is shown, tags or fusion partners need not be part of it. Blank lines part the entries; values can stand above or below the molecule they belong to.

Amino acid sequences for entries named in this document (tags omitted).
UniProt P40460: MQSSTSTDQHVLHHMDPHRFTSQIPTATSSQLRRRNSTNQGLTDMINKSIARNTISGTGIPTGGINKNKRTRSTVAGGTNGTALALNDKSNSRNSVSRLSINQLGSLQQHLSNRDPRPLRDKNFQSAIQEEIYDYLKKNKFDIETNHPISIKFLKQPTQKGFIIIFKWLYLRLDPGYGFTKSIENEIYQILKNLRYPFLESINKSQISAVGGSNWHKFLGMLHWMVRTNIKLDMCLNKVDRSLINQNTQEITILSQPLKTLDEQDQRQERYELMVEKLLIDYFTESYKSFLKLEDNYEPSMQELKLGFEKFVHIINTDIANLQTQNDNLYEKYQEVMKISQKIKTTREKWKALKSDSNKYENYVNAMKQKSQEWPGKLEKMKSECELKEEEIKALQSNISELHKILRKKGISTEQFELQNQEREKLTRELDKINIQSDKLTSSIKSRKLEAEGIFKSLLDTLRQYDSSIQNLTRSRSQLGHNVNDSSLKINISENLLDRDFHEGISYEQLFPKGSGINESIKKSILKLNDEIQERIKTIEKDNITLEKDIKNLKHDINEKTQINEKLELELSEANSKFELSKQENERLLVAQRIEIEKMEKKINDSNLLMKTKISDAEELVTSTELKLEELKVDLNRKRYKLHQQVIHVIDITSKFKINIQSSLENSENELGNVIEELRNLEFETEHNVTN
UniProt P38903: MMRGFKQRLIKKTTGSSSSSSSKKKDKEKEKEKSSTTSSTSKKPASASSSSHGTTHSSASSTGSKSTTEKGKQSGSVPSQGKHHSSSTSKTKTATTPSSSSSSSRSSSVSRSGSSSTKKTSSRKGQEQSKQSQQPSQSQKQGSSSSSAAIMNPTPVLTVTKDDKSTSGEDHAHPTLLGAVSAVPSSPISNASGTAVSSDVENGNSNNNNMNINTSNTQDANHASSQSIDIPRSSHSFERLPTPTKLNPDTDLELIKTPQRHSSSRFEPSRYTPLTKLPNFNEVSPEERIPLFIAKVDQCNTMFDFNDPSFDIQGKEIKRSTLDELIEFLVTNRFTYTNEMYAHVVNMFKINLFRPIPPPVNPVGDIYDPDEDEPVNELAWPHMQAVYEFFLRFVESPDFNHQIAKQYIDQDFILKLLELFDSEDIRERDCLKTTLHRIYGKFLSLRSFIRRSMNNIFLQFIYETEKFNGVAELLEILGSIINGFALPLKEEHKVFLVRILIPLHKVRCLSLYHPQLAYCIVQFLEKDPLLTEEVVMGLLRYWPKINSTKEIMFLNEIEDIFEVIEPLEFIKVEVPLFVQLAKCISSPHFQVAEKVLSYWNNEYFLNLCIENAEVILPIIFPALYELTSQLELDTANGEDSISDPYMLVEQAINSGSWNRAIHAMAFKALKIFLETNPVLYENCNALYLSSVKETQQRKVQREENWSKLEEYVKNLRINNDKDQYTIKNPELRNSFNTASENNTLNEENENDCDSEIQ
UniProt P09733: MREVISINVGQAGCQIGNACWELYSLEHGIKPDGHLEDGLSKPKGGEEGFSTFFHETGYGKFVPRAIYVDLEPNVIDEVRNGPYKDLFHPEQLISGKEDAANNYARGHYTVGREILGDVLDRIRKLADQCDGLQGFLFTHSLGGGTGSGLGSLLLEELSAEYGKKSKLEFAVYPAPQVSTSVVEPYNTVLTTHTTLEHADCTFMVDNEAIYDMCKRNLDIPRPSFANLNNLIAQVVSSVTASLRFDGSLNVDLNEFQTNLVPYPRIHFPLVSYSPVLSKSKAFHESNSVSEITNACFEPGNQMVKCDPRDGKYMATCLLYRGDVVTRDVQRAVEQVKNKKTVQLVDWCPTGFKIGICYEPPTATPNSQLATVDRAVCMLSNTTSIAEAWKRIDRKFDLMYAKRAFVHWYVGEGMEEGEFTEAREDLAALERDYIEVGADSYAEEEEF
UniProt P02557: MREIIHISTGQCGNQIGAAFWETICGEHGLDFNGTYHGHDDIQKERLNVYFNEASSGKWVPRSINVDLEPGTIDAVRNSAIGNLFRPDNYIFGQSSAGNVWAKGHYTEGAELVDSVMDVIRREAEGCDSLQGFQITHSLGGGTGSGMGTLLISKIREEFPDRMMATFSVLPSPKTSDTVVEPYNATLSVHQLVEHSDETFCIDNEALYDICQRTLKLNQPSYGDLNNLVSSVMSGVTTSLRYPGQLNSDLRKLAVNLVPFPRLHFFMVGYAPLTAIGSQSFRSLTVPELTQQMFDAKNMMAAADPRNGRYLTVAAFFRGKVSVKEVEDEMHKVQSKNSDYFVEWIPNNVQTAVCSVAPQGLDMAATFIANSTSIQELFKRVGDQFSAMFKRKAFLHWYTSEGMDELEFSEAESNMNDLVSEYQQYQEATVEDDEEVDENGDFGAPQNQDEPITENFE
UniProt P09734: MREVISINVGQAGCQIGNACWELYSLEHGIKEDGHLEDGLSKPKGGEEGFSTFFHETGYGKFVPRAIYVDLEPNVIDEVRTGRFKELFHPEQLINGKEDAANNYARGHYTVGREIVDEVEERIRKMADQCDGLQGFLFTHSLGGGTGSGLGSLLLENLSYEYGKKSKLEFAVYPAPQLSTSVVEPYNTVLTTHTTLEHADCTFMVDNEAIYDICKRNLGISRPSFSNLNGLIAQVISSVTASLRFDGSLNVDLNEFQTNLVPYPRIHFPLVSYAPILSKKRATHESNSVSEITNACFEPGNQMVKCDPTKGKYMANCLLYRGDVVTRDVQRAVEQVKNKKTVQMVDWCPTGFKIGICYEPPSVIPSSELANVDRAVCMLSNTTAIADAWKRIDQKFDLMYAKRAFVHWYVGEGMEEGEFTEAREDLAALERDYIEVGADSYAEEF

Columns and labels:
[1] = biological target: T1, Mad3-FLAG (S. cerevisiae (SK1)) (UniProt P47074); experiment: affinity purification with mass spectrometry; anti-FLAG M2 on Protein G Dynabeads, lysate of meiotic SK1 cells harvested 75 min after release from a prophase I arrest (prometaphase/metaphase I); against a no-tag control; buffer H0.15M (25 mM HEPES pH 8, 150 mM KCl, 0.1% NP-40), 4°C, 2.5 h; three biological replicates
T1 sequence: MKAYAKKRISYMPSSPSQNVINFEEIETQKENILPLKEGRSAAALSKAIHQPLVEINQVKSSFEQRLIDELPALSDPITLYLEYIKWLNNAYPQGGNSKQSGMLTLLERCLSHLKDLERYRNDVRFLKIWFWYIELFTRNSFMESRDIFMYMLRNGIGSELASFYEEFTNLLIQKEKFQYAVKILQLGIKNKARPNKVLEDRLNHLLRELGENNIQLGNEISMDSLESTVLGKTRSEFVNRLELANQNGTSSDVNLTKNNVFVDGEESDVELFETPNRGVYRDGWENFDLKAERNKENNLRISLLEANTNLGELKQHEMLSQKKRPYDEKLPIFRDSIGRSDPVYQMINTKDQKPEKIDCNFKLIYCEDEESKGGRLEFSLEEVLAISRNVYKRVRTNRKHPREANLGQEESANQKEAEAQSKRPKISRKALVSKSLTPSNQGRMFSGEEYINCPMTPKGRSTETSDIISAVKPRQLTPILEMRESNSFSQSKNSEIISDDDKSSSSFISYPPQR

[2] = biological target: Mad2-FLAG (S. cerevisiae (SK1)) (UniProt P40958); experiment: as above
[3] = biological target: T1, Mad3-FLAG (S. cerevisiae (SK1)); experiment: affinity purification with mass spectrometry; anti-FLAG M2 on Protein G Dynabeads, Mad3-FLAG from cells arrested in metaphase I by depletion of Cdc20 (pCLB2-CDC20), harvested 6 h after inducing sporulation; wild-type and mad2Δ cells compared; buffer H0.15M, 4°C
[4] = biological target: T2, Mad2-FLAG (S. cerevisiae (SK1)), P40958; experiment: affinity purification with mass spectrometry; anti-FLAG M2 on Protein G Dynabeads, lysate of meiotic SK1 cells harvested 75 min after release from a prophase I arrest (prometaphase/metaphase I); against a no-tag control; buffer H0.15M (25 mM HEPES pH 8, 150 mM KCl, 0.1% NP-40), 4°C, 2.5 h; three biological replicates; conditions: remark: other sources report otherwise
T2 chain: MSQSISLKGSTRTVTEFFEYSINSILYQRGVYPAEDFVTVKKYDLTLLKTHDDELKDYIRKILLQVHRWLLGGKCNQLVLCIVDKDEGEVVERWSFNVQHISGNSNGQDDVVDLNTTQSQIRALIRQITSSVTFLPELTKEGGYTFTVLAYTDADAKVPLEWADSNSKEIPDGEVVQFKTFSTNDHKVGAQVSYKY

binding [1]: no binding
binding [2]: binds
Molecule: Ndc80 (from UniProt P40460 1-691)

binding [1]: binds
Molecule: Rts1, a subunit of PP2A-B56 (from UniProt P38903 1-757)

binding [1]: binds
Molecule: Tub1 (from UniProt P09733 1-447)

binding [1]: binds
Molecule: Tub2 (from UniProt P02557 1-457)

binding [1]: binds
Molecule: Tub3 (from UniProt P09734 1-445)

binding [1]: binds
B1: Bub3 (protein, UniProt P26449 1-341)
chain: MQIVQIEQAPKDYISDIKIIPSKSLLLITSWDGSLTVYKFDIQAKNVDLLQSLRYKHPLLCCNFIDNTDLQIYVGTVQGEILKVDLIGSPSFQALTNNEANLGICRICKYGDDKLIAASWDGLIEVIDPRNYGDGVIAVKNLNSNNTKVKNKIFTMDTNSSRLIVGMNNSQVQWFRLPLCEDDNGTIEESGLKYQIRDVALLPKEQEGYACSSIDGRVAVEFFDDQGDDYNSSKRFAFRCHRLNLKDTNLAYPVNSIEFSPRHKFLYTAGSDGIISCWNLQTRKKIKNFAKFNEDSVVKIACSDNILCLATSDDTFKTNAAIDQTIELNASSIYIIFDYEN

binding [1]: binds
binding [3]: binds
B2: Ptc7 (enzyme, UniProt P38797 40-343)
chain: YQSNNSHGDAYSSGSQSGPFTYKTAVAFQPKDRDDLIYQKLKDSIRSPTGEDNYFVTSNNVHDIFAGVADGVGGWAEHGYDSSAISRELCKKMDEISTALAENSSKETLLTPKKIIGAAYAKIRDEKVVKVGGTTAIVAHFPSNGKLEVANLGDSWCGVFRDSKLVFQTKFQTVGFNAPYQLSIIPEEMLKEAERRGSKYILNTPRDADEYSFQLKKKDIIILATDGVTDNIATDDIELFLKDNAARTNDELQLLSQKFVDNVVSLSKDPNYPSVFAQEISKLTGKNYSGGKEDDITVVVVRVD

binding [4]: no binding
B3: Mad3^BUBR1, P47074 1-515 (protein)
chain: T1 sequence

binding [1]: binds
B4: Ptc3 (enzyme, UniProt P34221 1-468)
chain: MGQILSNPIIDKEHHSGTDCLTAFGLCAMQGWRMSMEDAHIVEPNLLAESDEEHLAFYGIFDGHGGSSVAEFCGSKMISILKKQESFKSGMLEQCLIDTFLATDVELLKDEKLKDDHSGCTATVILVSQLKKLLICANSGDSRTVLSTGGNSKAMSFDHKPTLLSEKSRIVAADGFVEMDRVNGNLALSRAIGDFEFKSNTKLGPHEQVVTCVPDIICHNLNYDEDEFVILACDGIWDCLTSQECVDLVHYGISQGNMTLSDISSRIVDVCCSPTTEGSGIGCDNMSISIVALLKENESESQWFERMRSKNYNIQTSFVQRRKSIFDFHDFSDDDNEVFAITTKKLQDRLNRSKDNDDMEIDDLDTELGSSATPSKLSGEDRTGPIDLFSLEALLEAGIQIRQRPSSDSDGNTSYFHGASLSDMLASLSNAAAGETEPNDADDNDDNDGEENGKNENAKKGSKIEEIE
